In publication PMC10897455:
Results are given in words; binding and its absence hold for the method and conditions named. In cells and extracts the contact can be indirect. Some entries that bind do so weakly or less than the wild type. Tags and fused reporters may be left off the sequences shown.

Molecular target: T1, occludin (residues 1–522), FLAG- or Myc-tagged, in HEK293 cells (human), Q16625
T1 chain: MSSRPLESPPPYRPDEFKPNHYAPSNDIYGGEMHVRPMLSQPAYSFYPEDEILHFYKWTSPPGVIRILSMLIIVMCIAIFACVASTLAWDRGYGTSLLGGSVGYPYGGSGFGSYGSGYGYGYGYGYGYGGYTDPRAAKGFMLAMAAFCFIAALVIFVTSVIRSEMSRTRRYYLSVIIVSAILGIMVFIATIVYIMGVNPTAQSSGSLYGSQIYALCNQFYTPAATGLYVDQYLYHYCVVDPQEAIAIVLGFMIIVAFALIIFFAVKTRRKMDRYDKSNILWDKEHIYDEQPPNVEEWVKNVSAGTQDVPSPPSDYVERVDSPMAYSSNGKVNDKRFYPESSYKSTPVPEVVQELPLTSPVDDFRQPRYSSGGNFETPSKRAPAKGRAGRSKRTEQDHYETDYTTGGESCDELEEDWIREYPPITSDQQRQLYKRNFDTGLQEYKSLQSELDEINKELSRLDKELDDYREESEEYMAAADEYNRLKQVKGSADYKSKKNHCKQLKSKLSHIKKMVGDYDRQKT
Assay: co-IP; trans, with or without a co-expressed third protein: HEK293T cells with the FLAG-tagged protein with or without HA–TMEM25 or HA–JAM-A co-cultured to confluency with cells expressing the Myc-tagged protein; anti-FLAG precipitation; immunoblot, band ratios
Conditions: remark: other sources report otherwise

B1: occludin (residues 1–522), FLAG- or Myc-tagged, in HEK293 cells, Q16625 1-522 (protein)
chain: MSSRPLESPPPYRPDEFKPNHYAPSNDIYGGEMHVRPMLSQPAYSFYPEDEILHFYKWTSPPGVIRILSMLIIVMCIAIFACVASTLAWDRGYGTSLLGGSVGYPYGGSGFGSYGSGYGYGYGYGYGYGGYTDPRAAKGFMLAMAAFCFIAALVIFVTSVIRSEMSRTRRYYLSVIIVSAILGIMVFIATIVYIMGVNPTAQSSGSLYGSQIYALCNQFYTPAATGLYVDQYLYHYCVVDPQEAIAIVLGFMIIVAFALIIFFAVKTRRKMDRYDKSNILWDKEHIYDEQPPNVEEWVKNVSAGTQDVPSPPSDYVERVDSPMAYSSNGKVNDKRFYPESSYKSTPVPEVVQELPLTSPVDDFRQPRYSSGGNFETPSKRAPAKGRAGRSKRTEQDHYETDYTTGGESCDELEEDWIREYPPITSDQQRQLYKRNFDTGLQEYKSLQSELDEINKELSRLDKELDDYREESEEYMAAADEYNRLKQVKGSADYKSKKNHCKQLKSKLSHIKKMVGDYDRQKT
  binding: binds
